No constants are given. Whether binding was seen depends on the method and setting. Binding seen in cells or lysates may run through a third protein. A yes stands for co-enrichment or nearness to the bait. Other partners may have been found.
Experiments:
Assay in all cases: affinity purification with mass spectrometry; stable HEK293F lines with Protein A-TEV-SBP tagged baits; nuclear extract (INTS4, INTS5) or S100 fraction (INTS4, INTS10); IgG beads, TEV elution, streptavidin beads, desthiobiotin elution, 150 mM KCl, 20 mM HEPES-KOH pH 7.8; TMT quantitative mass spectrometry, enrichment against the INTS4 …
[1] = molecular target: Protein A-TEV-SBP N-terminal tagged INTS4 (UniProt Q96HW7)
[2] = molecular target: Protein A-TEV-SBP N-terminal tagged INTS5 (UniProt Q6P9B9)
[3] = molecular target: Protein A-TEV-SBP N-terminal tagged INTS10 (UniProt Q9NVR2)

The chains behind the UniProt entries cited, without tags or fusion partners.
UniProt Q96HW7: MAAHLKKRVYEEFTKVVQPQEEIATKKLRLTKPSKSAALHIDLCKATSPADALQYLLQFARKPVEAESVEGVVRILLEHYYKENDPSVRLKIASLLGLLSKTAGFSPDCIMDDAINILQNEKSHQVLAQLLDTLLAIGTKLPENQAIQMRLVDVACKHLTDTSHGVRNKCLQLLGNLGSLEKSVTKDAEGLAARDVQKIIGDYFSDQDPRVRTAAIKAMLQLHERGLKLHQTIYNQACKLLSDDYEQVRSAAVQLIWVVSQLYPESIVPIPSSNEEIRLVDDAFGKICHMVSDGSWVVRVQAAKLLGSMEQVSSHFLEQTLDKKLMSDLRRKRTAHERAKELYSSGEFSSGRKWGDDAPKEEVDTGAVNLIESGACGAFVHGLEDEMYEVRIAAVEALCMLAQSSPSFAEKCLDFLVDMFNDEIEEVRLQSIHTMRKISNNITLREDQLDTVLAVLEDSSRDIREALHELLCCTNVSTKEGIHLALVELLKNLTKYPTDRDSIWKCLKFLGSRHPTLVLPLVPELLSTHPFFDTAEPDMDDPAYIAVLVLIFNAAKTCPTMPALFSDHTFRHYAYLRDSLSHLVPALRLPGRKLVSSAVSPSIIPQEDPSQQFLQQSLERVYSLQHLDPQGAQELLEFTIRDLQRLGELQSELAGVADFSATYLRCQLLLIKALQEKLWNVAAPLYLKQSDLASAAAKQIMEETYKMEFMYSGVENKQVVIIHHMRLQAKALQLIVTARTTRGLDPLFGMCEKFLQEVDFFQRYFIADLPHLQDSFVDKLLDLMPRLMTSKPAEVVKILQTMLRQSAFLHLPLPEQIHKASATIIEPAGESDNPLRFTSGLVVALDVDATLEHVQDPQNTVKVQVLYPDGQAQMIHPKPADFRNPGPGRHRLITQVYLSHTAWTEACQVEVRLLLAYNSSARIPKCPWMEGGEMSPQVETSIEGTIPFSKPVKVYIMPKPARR
UniProt Q6P9B9: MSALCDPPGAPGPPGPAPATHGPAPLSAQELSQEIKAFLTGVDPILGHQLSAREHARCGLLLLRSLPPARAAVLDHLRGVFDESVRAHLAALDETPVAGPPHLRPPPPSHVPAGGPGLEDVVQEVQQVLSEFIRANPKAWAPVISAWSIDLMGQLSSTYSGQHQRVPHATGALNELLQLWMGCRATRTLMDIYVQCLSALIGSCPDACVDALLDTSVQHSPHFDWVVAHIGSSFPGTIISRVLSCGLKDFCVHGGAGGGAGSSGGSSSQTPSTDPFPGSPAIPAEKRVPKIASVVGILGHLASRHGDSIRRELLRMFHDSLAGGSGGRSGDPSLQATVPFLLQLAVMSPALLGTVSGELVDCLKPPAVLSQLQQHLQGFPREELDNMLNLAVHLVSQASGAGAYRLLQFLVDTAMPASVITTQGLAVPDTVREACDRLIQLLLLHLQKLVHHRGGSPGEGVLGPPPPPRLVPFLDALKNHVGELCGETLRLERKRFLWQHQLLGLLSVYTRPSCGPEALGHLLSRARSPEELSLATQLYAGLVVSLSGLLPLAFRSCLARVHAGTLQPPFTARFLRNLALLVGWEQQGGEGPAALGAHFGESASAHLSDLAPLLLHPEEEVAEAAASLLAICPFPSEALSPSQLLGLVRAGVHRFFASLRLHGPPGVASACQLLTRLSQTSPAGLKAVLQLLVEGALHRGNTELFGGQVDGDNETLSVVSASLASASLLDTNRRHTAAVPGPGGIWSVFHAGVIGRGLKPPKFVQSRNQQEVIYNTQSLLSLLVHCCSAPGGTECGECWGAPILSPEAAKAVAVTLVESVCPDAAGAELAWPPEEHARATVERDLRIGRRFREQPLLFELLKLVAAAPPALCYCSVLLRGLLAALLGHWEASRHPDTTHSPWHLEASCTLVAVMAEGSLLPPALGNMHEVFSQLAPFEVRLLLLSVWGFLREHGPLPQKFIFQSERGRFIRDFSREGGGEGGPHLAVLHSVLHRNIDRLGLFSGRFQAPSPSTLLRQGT
UniProt Q9NVR2: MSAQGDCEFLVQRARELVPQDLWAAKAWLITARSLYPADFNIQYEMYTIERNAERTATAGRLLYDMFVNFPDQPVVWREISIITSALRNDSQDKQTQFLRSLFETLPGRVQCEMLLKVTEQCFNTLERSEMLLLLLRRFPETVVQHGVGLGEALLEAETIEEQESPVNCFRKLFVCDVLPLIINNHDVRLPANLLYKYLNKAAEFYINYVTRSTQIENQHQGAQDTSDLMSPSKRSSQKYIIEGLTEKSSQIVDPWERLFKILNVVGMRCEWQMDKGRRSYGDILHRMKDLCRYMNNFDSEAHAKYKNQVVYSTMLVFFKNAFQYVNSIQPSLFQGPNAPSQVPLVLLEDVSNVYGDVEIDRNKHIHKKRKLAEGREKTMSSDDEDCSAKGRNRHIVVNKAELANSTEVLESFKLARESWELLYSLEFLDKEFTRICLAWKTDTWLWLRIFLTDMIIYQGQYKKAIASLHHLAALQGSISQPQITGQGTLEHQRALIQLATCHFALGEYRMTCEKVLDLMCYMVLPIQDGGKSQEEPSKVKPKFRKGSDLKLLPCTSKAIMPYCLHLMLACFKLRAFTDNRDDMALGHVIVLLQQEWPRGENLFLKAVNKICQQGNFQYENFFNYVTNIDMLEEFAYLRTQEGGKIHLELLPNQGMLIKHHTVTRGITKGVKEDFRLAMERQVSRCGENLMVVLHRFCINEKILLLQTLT
UniProt Q9NVH2: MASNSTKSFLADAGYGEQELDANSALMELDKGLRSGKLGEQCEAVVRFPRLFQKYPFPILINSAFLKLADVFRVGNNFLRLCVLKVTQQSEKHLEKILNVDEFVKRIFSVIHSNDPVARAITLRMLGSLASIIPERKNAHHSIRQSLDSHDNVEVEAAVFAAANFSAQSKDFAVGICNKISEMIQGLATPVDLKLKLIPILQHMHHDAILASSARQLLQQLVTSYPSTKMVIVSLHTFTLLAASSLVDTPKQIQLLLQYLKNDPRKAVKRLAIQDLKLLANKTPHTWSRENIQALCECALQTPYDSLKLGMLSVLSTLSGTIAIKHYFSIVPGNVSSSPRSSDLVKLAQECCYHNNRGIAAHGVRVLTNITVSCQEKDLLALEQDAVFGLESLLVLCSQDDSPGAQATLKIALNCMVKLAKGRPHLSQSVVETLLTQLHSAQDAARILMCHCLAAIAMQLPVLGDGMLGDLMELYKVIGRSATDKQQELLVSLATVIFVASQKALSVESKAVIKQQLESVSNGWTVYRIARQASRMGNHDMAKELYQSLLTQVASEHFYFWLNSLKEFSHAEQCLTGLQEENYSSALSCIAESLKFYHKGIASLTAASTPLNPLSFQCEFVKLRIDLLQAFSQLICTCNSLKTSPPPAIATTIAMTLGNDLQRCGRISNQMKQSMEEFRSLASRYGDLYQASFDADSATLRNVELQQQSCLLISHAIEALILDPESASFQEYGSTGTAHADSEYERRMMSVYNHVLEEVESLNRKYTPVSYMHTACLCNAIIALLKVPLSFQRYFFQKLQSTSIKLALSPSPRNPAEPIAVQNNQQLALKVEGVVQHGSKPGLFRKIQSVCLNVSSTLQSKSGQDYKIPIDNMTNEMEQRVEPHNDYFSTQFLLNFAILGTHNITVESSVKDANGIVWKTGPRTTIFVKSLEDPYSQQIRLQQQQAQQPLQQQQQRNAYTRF
UniProt Q75QN2: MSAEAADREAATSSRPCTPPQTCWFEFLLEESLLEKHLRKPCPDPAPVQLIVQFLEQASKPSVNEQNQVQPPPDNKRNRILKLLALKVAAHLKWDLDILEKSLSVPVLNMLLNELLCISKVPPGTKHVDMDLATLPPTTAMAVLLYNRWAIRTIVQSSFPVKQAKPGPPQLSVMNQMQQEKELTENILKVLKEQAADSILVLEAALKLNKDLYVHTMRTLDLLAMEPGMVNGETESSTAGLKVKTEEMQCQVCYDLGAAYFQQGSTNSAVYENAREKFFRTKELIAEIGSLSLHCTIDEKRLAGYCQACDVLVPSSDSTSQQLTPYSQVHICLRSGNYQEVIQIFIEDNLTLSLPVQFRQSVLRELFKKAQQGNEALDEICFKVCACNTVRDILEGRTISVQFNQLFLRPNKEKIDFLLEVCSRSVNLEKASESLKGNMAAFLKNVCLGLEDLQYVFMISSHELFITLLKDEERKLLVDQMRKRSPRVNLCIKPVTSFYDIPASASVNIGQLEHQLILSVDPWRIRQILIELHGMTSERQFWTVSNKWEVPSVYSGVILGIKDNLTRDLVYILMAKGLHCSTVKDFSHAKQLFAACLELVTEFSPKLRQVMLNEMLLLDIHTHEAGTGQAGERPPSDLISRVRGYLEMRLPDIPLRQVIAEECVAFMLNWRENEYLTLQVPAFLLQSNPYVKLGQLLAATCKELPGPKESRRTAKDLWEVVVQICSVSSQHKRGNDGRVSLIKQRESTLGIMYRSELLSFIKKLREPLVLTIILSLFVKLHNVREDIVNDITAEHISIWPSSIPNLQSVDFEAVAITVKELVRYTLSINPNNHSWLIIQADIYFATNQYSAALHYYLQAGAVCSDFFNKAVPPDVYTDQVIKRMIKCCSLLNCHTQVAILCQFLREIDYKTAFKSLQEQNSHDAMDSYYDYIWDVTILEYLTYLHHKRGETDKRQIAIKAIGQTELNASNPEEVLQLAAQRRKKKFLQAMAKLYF
UniProt Q9NV88: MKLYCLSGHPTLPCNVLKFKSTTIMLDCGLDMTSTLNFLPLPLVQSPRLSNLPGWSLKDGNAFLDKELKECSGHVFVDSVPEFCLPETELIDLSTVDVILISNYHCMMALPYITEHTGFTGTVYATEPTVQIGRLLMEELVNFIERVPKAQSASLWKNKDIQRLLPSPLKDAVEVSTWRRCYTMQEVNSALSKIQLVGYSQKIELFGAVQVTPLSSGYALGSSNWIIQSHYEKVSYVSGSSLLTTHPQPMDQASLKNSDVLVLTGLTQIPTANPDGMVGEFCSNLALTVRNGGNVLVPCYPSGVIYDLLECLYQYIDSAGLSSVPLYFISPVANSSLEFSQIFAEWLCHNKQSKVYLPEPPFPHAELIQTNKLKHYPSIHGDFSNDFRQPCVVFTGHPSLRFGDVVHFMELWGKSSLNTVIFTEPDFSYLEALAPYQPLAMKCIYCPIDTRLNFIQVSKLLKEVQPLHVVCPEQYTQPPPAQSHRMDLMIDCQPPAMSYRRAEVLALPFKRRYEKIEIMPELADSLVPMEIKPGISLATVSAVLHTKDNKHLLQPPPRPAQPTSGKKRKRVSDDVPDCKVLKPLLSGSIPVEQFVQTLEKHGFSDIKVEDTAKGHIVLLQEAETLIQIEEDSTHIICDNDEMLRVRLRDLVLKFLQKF
UniProt Q9NVM9: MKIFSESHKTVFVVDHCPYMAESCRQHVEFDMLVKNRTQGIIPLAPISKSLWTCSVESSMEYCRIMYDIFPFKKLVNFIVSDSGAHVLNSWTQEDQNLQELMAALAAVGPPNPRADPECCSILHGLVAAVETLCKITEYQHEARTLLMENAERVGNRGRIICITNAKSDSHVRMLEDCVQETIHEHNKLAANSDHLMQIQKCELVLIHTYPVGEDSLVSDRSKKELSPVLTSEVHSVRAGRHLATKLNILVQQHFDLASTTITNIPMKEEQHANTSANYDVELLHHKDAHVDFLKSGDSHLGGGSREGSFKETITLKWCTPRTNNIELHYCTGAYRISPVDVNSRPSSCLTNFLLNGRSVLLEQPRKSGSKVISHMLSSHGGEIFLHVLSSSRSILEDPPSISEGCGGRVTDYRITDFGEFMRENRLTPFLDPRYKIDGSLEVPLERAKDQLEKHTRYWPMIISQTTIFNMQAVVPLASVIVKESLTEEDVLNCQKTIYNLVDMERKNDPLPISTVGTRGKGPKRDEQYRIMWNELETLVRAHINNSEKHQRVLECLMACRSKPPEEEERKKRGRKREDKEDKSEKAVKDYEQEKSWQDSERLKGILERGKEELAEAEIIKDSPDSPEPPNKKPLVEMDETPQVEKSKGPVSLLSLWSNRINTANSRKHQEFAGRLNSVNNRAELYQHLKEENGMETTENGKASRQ
UniProt Q96SY0: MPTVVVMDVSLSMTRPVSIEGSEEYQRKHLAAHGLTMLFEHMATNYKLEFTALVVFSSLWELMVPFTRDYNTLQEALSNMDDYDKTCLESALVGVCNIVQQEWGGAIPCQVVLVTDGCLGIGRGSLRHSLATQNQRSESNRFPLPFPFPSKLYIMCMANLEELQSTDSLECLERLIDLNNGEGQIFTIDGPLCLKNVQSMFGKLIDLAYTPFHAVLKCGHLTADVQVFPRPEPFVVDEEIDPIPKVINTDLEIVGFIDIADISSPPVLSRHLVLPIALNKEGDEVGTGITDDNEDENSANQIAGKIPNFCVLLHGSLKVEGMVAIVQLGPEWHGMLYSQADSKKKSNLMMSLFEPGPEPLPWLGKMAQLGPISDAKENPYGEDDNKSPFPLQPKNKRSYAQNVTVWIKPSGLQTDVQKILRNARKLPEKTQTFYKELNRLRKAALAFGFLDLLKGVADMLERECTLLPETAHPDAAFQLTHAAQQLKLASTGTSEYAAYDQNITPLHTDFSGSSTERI

Substance	binding [1]	binding [2]	binding [3]
INTS7 (endogenous) (from UniProt Q9NVH2 1-962)	binds	binds	–
INTS8 (endogenous) (from UniProt Q75QN2 1-995)	–	binds	–
INTS9 (endogenous) (from UniProt Q9NV88 1-658)	binds	–	–
INTS13 (endogenous) (from UniProt Q9NVM9 1-706)	–	–	binds
INTS14 (endogenous) (from UniProt Q96SY0 1-518) (other; other documents disagree on this pair)	–	–	binds

From PMC7980224
